This experiment has as its target human MDGA1 extracellular domain (MDGA1_(ECTO); Gln19-Lys925) (human) (UniProt Q8NFP4). Nature of the experiment: AUC; sedimentation velocity, human MDGA1_(ECTO) at 60 μM (6.31 g/L) in TBS-CT, 293 K, 40,000 rpm; both purified.

Results are given in words; binding and its absence hold for the method and conditions named.

In paper PMC5563082 one finds binding data, which are given here for 1 molecule.

B1: human MDGA1 extracellular domain (MDGA1_(ECTO); Gln19-Lys925) (domain or fragment, UniProt Q8NFP4-1 19-925)
chain: QGVYAPAQAQIVHAGQACVVKEDNISERVYTIREGDTLMLQCLVTGHPRPQVRWTKTAGSASDKFQETSVFNETLRIERIARTQGGRYYCKAENGVGVPAIKSIRVDVQYLDEPMLTVHQTVSDVRGNFYQEKTVFLRCTVNSNPPARFIWKRGSDTLSHSQDNGVDIYEPLYTQGETKVLKLKNLRPQDYASYTCQVSVRNVCGIPDKAITFRLTNTTAPPALKLSVNETLVVNPGENVTVQCLLTGGDPLPQLQWSHGPGPLPLGALAQGGTLSIPSVQARDSGYYNCTATNNVGNPAKKTVNLLVRSMKNATFQITPDVIKESENIQLGQDLKLSCHVDAVPQEKVTYQWFKNGKPARMSKRLLVTRNDPELPAVTSSLELIDLHFSDYGTYLCMASFPGAPVPDLSVEVNISSETVPPTISVPKGRAVVTVREGSPAELQCEVRGKPRPPVLWSRVDKEAALLPSGLPLEETPDGKLRLERVSRDMSGTYRCQTARYNGFNVRPREAQVQLNVQFPPEVEPSSQDVRQALGRPVLLRCSLLRGSPQRIASAVWRFKGQLLPPPPVVPAAAEAPDHAELRLDAVTRDSSGSYECSVSNDVGSAACLFQVSAKAYSPEFYFDTPNPTRSHKLSKNYSYVLQWTQREPDAVDPVLNYRLSIRQLNQHNAVVKAIPVRRVEKGQLLEYILTDLRVPHSYEVRLTPYTTFGAGDMASRIIHYTEPINSPNLSDNTCHFEDEKICGYTQDLTDNFDWTRQNALTQNPKRSPNTGPPTDISGTPEGYYMFIETSRPRELGDRARLVSPLYNASAKFYCVSFFYHMYGKHIGSLNLLVRSRNKGALDTHAWSLSGNKGNVWQQAHVPISPSGPFQIIFEGVRGPGYLGDIAIDDVTLKKGECPRKQTDPNK
Turning to B1, the binding entry is reported as “no binding (tested: 60 μM)”.
